# Data reported in PubChem BioAssay AID1259415 (National Center for Advancing Translational Sciences (NCATS), 2018).
# In all, about 410,000 compounds went through this assay and about 18,000 (4.4%) were called active. Inconclusive means that the source gave no clear call. Such entries were picked first, then a sample of the others. No stated cut-off is given here; in the data, active means activity change below about -60%; inconclusive means no clear call, values can overlap the other calls; inactive means above about -39%.
# Assay: qHTS Assay for inhibitors of the human cytomegalovirus (HCMV)
# Details: HFF cells, HCMV-luciferase reporter, 72 h; at 57.5 µM; stronger effect = lower value
# From the text: NCGC Assay Overview: Infection with human cytomegalovirus (HCMV) continues to pose significant threats for pregnant women and immunocompromised hosts. HCMV causes serious morbidity and mortality in transplant recipients, and congenital HCMV is the leading infectious cause of mental retardation and deafness in children. In the 1990s, the annual costs associated with the disease burden of congenital CMV were estimated at around $2 billion. A HCMV vaccine is not available yet and HCMV therapies result in intolerable side effects and emergence of drug resistant viruses. […] Towards this goal we have developed and characterized a luciferase HCMV reporter that was initially used in 96 well plates and then optimized to 1536-well plates for utilization in screening of the MLSMR collection, the NGCG diversity collection and the NCGC Pharmaceutical Collection of approved and investigational drugs.
# NCGC Assay Protocol Summary:
# This is a cell-based assay for HCMV inhibition in HFFs cells. The screening used 2 compound doses and the HCMV-luciferase at MOI of 1 PFU/cell. Cells were treated and infected with HCMV. At 72 h post infection cell lysates were collected and luciferase activity was determined using the Glomax-Multi + Detection System (Promega, Madison, WI). Data were normalized to the controls for basal activity (buffer only) and known HCMV inhibitors Salinmoycin.
# 1536-well assay protocol for the assay:
# (1) Add 3 ul CMV/HFF cell culture. 1000 cells/well in DMEM nirmal media.
# (2) Incubate 16 hr at 37C.
# (3) Add 23 nl control compound, 10uM of Salinomycin.
# (4) Add 23 nl compounds in DMSO solution.
# (5) Add 3 ul CMV suspension. Final 1 puf/ul, Virus stock 2000pfu/ul
# (6) Incubate 72 hrs at 37C.
# (7) Add 4 ul OneGlo Luc Reagent.
# (8) Incubate 5 min at room temperature.
# On the % scale 0 is the no-effect control and ±100 the full control effect.
row,Structure (SMILES),"activity change, negative = inhibition"
1,Cc1occc1C(=O)NCCCCNC(=O)c1ccoc1C,active: -98.2%
2,CCOC(=O)COn1c(=O)c(-c2ccc(OCC)cc2)[n+]([O-])c2ccccc21,inconclusive: -47.4%
3,CCOc1cc(Cl)c(S(=O)(=O)NCCCN2CCOCC2)cc1Cl,inconclusive: -41.5%
4,CNc1nc(Nc2ccc(C)cc2C)c2sccc2n1,active: -62.5%
5,CC(C)Oc1ccccc1/C=N/NC(=O)c1ccc(F)cc1,inactive: 13.6%
6,CCN(CC)S(=O)(=O)c1ccc(C)c(NC(=S)Nc2cccc(S(=O)(=O)N3CCCCCC3)c2)c1,active: -76.6%
7,CCOC(=O)C(C)Sc1nc(=O)n2ccccc2n1 (centres undefined),inconclusive: -56.1%
8,Cc1oc(-c2ccccc2)cc1C(=O)NC1CCN(Cc2ccccc2)CC1,inconclusive: -55.2%
9,CC(C)CCN(CC(=O)NCc1ccc(F)cc1)S(=O)(=O)c1ccccc1F,inconclusive: -54.1%
10,NC1=C(O)C(=O)C(c2ccccc2)O1 (centres undefined),inactive: 10.5%
11,CCOC(=O)[C@@H]1[C@H]2COc3ccc(Br)cc3[C@@H]2N2C(=O)N(c3ccc(F)cc3)C(=O)[C@]12C,inconclusive: -42.7%
12,COCCn1c(=N)c(S(=O)(=O)c2ccc(F)cc2)cc2c(=O)n3cccc(C)c3nc21,inconclusive: 0%
13,COc1ccc(CNS(=O)(=O)c2ccc(F)c(C(=O)Nc3ccccc3OC)c2)cc1,inconclusive: -47%
14,CCC1=Nc2cc(C(=O)NCc3ccco3)ccc2Sc2ccc(Cl)cc21,active: -66.6%
15,O=C(Nc1cccc(-c2nc3cccnc3s2)c1)c1cccc(Br)c1,active: -66.6%
16,CC(C)C[C@H]1CNC(=S)N1C[C@H]1CCCN1C[C@H](Cc1ccccc1)N1C[C@H](Cc2ccc(O)cc2)N(CCc2ccccc2)C1=S,inconclusive: -40.8%
17,CCOC(=O)c1c(C)cc2c(CO)n[nH]c(=O)c2c1C,inconclusive: -52.6%
18,Cc1cn2c(=O)c(S(=O)(=O)N3CCN(c4cc(Cl)ccc4C)CC3)c(C)nc2s1,inactive: -1.76%
19,O=C(Oc1ccc([N+](=O)[O-])cc1)c1ccc2ccccc2n1,inconclusive: -48.7%
20,O=c1cc(CSc2ccc([N+](=O)[O-])cc2)nc2sccn12,inconclusive: -57.6%
21,Cc1cccc(CC(=O)Nc2cc(C)c3c(=O)oc4ccccc4c3n2)c1,inactive: -36.5%

# 5 entries picked at random from those above, as already listed:
row,Structure (SMILES),"activity change, negative = inhibition"
11,CCOC(=O)[C@@H]1[C@H]2COc3ccc(Br)cc3[C@@H]2N2C(=O)N(c3ccc(F)cc3)C(=O)[C@]12C,inconclusive: -42.7%
12,COCCn1c(=N)c(S(=O)(=O)c2ccc(F)cc2)cc2c(=O)n3cccc(C)c3nc21,inconclusive: 0%
8,Cc1oc(-c2ccccc2)cc1C(=O)NC1CCN(Cc2ccccc2)CC1,inconclusive: -55.2%
7,CCOC(=O)C(C)Sc1nc(=O)n2ccccc2n1 (centres undefined),inconclusive: -56.1%
19,O=C(Oc1ccc([N+](=O)[O-])cc1)c1ccc2ccccc2n1,inconclusive: -48.7%

# The results go on.

row,Structure (SMILES),"activity change, negative = inhibition"
1,CC(=O)Nc1ccc(S(=O)(=O)Oc2ccc(C(=S)N3CCCCC3)cc2)cc1,inconclusive: -46%
2,O=C(Nc1ccccc1Cl)N1C2CCC1CC(O)(c1cccnc1)C2 (centres undefined),inconclusive: -44.3%
3,COc1ccccc1NC(=O)CSc1oc(-c2ccccc2)nc1S(=O)(=O)c1ccc(C)cc1,inactive: -16.2%
4,Cc1cccc(NC(=O)c2ccc(S(=O)(=O)N3CCCCC3)cc2)c1,inactive: -13.6%
5,CNC(=O)c1ccsc1NC(=O)CS(=O)(=O)c1ccc(Cl)cc1,inconclusive: -46.9%
6,Cc1c(O)ccc(/C=N/Nc2ncccc2[N+](=O)[O-])c1O,active: -69%
7,Sc1nnc(-c2ccc(Cl)cc2)n1Cc1ccccc1,inconclusive: 0%
8,COc1ccc2[nH]c(C)c(C(=O)CN3CCN(C(=O)c4ccco4)CC3)c2c1,inactive: 29.3%
9,Cc1noc(C)c1NC(=O)N(C)C[C@H]1Oc2ccc(NC(=O)Nc3ccc4c(c3)OCO4)cc2C(=O)N([C@H](C)CO)C[C@@H]1C,inactive: 30.9%
10,CCc1cccc2[nH]c3cc([N+](=O)[O-])ccc3c12,active: -61.2%
11,CN1CC(=O)N2Cc3[nH]c4ccccc4c3C[C@H]2C1=O,inconclusive: -56.1%
12,COc1cc([N+](=O)[O-])ccc1NC(=O)c1cccc(NC(=O)C(C)C)c1,inactive: -36.7%
13,Cc1nc2cc(NC(=O)Nc3ccc(Br)cc3)ccc2o1,inconclusive: -47.3%
14,O=C(c1ccc(NC2=NC3CS(=O)(=O)CC3S2)cc1)N1CCc2ccccc2C1 (centres undefined),inconclusive: -50.4%
15,COc1ccc(CNC(=O)CN(CCC(C)C)S(=O)(=O)c2ccc3c(c2)OCCO3)cc1,inconclusive: -49%
16,CC(C)(C)N(NC(=O)c1ccccc1)C(=O)c1ccc(C(=O)N(NC(=O)c2ccccc2)C(C)(C)C)cc1,active: -60%
17,COc1ccc(C(=O)NN2CC(O)=C(c3nc4ccccc4n3C)C2=N)cc1OC,inactive: -19.5%
18,COCCNC(=O)c1cccc(Nc2nc(-c3ccccc3)c3cc(Cl)ccc3n2)c1,inactive: -32.9%
19,Cc1nc2scc(-c3ccc(Cl)cc3)c2c(=O)n1N,inconclusive: -49.9%
20,CC1(C)OC(=O)N(c2ccccc2)C12C=Cc1cc(Br)ccc1O2 (centres undefined),inconclusive: -45.2%
21,Cc1cccc(CNC(=O)c2ccc(C)c(-n3c(C)nc4cccnc43)c2)c1,inconclusive: 0%

row,Structure (SMILES),"activity change, negative = inhibition"
1,Cc1ccc(NS(=O)(=O)c2ccc(C(=O)NCCCN3CCCC3=O)cc2)cc1C,inconclusive: -41.1%
2,N=c1c(S(=O)(=O)c2ccc(Cl)cc2)cc2c(=O)n3ccccc3nc2n1CCN1CCOCC1,inactive: -24.8%
3,CCCCN(C)C(=O)Cn1nc(-c2ccc(Cl)cc2)ccc1=O,inactive: -32.4%
4,CCCCn1c(N)c(N2CCOCC2)c(=O)n(CC(=O)NC(C)c2ccccc2)c1=O (centres undefined),inconclusive: -41.6%
5,COc1ccc(N2CCN(C(c3cccs3)c3nnnn3C3CCCC3)CC2)cc1 (centres undefined),inconclusive: -45.7%
6,COc1ccc(-c2ncnc(C(F)(F)F)c2-c2csc(C)n2)c(O)c1,inconclusive: -41.7%
7,COc1ccc(C(=O)NC2CC(C)(C)Cc3c2cnn3-c2ccccc2)c(OC)c1 (centres undefined),active: -62.5%
8,O=c1c(S(=O)(=O)c2cccc(Cl)c2)cn(Cc2ccccc2)c2cc(N3CCCCC3)c(F)cc12,active: -65.2%
9,CCN(CC)S(=O)(=O)c1ccc2[nH]cc(C(=O)NCCc3ccccc3)c(=O)c2c1,inconclusive: -44.2%
10,O=C(NCC1CCCO1)c1cc2ccccc2nc1Cl (centres undefined),active: -69.5%
11,Cc1oc2cc3oc(=O)c(CCC(=O)NCCCn4ccnc4)c(C)c3cc2c1C,inactive: -17.3%
12,Cc1ccc(C(=O)Nc2nc(-c3nnn(-c4cccc(C(F)(F)F)c4)c3C)ns2)cc1,inactive: 8.35%
13,Cc1cc(C)cc(OCC(=O)Nc2ccccc2C(=O)N2CCOCC2)c1,inconclusive: -59.9%
14,CC(=O)N1c2ccc(S(=O)(=O)N3CCC(C(=O)Nc4ccccn4)CC3)cc2CC1C (centres undefined),inconclusive: -52.6%
15,COc1cc(OC)cc(C(=O)Nc2nnc3n2CCS3)c1,inactive: -15%
16,O=C(c1ccccc1)N1CCCC(c2nc3c(nnn3Cc3ccccc3)c(=O)[nH]2)C1 (centres undefined),inactive: 17.2%
17,O=C(O)CCC(NC(=O)c1ccc(Cl)cc1)C(=O)O (centres undefined),inactive: 18.2%
18,CC(Cc1cccs1)NC(=S)Nc1ccc(Cl)cc1 (centres undefined),active: -92.2%
19,CCOC(=O)c1c(CSc2ccccc2)n(C)c2cc(Br)c(OCC(O)CNC(CO)(CO)CO)cc12 (centres undefined),active: -62.8%
20,CSCCC(NS(=O)(=O)c1ccc2c(c1)oc(=O)n2C)C(=O)N1CCN(c2ccc(C(C)=O)cc2)CC1 (centres undefined),inconclusive: 0%
21,CCc1ccc(-n2c(=O)c3cccnc3n2CC(=O)Nc2cc(OC)ccc2OC)cc1,inconclusive: -46.6%

row,Structure (SMILES),"activity change, negative = inhibition"
1,Cc1ccc(NC(=S)NCc2cccs2)c(C)c1,inactive: -27.4%
2,Cc1nc(NC(=S)NC(=O)c2cncc(Br)c2)ccc1Br,inconclusive: -47.7%
3,O=c1cc(-c2ccccc2Cl)oc2c(Br)ccc(O)c12,inactive: -18.2%
4,CCCCOc1cccc(NC(=O)c2cccc(C(=O)Nc3cccc(OCCCC)c3)c2)c1,inactive: -30.3%
5,CC(C)c1ccc(NC(=O)CSc2n[nH]c(=O)n2C2CC2)cc1,inactive: -9.46%
6,Cc1ccc(C)c(C(=O)CSc2nnnn2-c2cccnc2)c1,inconclusive: -49.6%
7,COc1ccccc1CNS(=O)(=O)c1ccc2c(c1)CC(C)N2C(=O)C1CC1 (centres undefined),inconclusive: -41.9%
8,COc1ccc(S(=O)(=O)N2CCCOC2CNC(=O)C(=O)NCCCN2CCOCC2)cc1 (centres undefined),inconclusive: -51.7%
9,CCC(=NCc1cc(OC)cc(OC)c1)c1c(O)n(C)c(=O)n(C)c1=O,active: -89.9%
10,CN(NC(=S)Nc1ccc(OC(F)F)cc1)C(=S)Nc1ccc(OC(F)F)cc1,inactive: -5.26%
11,CC(=O)Nc1ccc(S(=O)(=O)Nc2ccc3c(c2)OCCO3)cc1Cl,active: -87.7%
12,CCOC(=O)C1=C(CS(=O)(=O)c2ccccc2)NC(=O)NC1c1cccc(OC)c1 (centres undefined),inconclusive: -47%
13,CCOC(=O)C1=C(CS(=O)(=O)c2ccc(Br)cc2)NC(=O)NC1c1ccccc1 (centres undefined),inactive: -0.262%
14,COC1CCN(C(=O)CC2C(=O)NCCN2CC2CCCCC2)CC1 (centres undefined),inconclusive: -46.2%
15,CCOc1ccc(-c2nc3c(s2)CCc2onc(-c4ccc(OC)cc4)c2-3)cc1,active: -60.4%
16,Cc1ccc(-c2c(C(=O)NCc3ccccc3)oc(=O)c3ccccc23)cc1,inconclusive: -41.3%
17,COc1ccccc1C(=O)Nc1ccc2c(c1)CN(Cc1cnc(C)s1)CC2,inconclusive: -44.4%
18,Cc1ccc(-n2cc(CNC(C)c3cnn(C)c3C)c(-c3ccc(F)cc3)n2)cc1 (centres undefined),inconclusive: -43.7%
19,C#CCNC(=O)C1=C[C@@H](C2CCCCC2)[C@H](CCCO)[C@@H](OCC)O1,inconclusive: -48.9%
20,CCOc1ccc(NS(=O)(=O)c2ccc(NC(C)=O)c(OC)c2)cc1,inconclusive: -42.8%
21,Cc1oc(-c2cccc(Cl)c2)nc1CN1CCCC(C(=O)NCc2ccc(F)cc2)C1 (centres undefined),inactive: 4.41%
